These are yes or no findings as the source states them, for the method shown. In cells and extracts the contact can be indirect. Some binding calls cover weakened binding; strength is not graded here. Sequences can lack the tags named with a protein.

Chains of the proteins cited; added tags and fusions are not shown.
UniProt P54609: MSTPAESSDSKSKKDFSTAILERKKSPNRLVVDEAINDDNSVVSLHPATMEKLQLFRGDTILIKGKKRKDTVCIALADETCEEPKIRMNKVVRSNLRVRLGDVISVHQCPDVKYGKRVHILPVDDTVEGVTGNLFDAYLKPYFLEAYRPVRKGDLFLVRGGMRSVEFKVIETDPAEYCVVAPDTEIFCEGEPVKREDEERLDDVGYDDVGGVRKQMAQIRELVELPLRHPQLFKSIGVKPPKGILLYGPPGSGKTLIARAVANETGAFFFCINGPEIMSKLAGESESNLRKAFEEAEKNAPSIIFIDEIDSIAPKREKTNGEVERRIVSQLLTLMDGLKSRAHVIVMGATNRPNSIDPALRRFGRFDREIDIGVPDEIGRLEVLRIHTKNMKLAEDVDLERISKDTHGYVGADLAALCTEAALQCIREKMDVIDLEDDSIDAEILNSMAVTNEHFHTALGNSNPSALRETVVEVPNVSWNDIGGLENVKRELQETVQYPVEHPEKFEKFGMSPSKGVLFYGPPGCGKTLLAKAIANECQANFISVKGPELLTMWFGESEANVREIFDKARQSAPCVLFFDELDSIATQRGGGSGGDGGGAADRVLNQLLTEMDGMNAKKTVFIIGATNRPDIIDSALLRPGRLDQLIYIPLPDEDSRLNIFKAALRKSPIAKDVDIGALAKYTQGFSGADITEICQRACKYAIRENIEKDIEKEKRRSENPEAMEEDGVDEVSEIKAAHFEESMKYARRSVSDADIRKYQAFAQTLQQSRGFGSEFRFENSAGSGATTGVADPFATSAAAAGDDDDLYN
UniProt Q39255: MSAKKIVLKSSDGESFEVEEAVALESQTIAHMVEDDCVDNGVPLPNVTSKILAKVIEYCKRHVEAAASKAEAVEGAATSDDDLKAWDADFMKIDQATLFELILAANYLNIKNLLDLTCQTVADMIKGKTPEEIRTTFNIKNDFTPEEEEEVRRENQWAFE

The text below walks through data of PMC11180018.

In one assay the target is T1, EID1 (BiFC fusion) (UniProt Q8LEA8).
T1 sequence: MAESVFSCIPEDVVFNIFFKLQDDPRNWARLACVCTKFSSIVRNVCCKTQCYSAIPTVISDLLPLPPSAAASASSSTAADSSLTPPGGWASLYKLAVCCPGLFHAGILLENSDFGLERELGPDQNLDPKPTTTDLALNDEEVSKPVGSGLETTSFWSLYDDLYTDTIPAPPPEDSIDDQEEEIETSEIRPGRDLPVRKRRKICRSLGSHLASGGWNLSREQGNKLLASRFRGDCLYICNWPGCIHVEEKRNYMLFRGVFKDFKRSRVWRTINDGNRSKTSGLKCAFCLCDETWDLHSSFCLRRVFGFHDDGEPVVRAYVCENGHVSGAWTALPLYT
Briefly: split reporter; BiFC (nYFP/cYFP) in transiently transfected Arabidopsis leaf mesophyll protoplasts, overnight incubation in darkness.

Assay [1] addresses CDC48A-FLAG (Arabidopsis thaliana) (UniProt P54609). Briefly: co-IP; lysates of Arabidopsis seedlings stably expressing WOX2-YFP-GR and CDC48A-FLAG after 4 h 10 μM DEX; immunoprecipitated by anti-GFP beads or anti-FLAG beads (µMACS kit); Western blots with anti-GFP and anti-FLAG. A general note: Immunoblotting shows a protein as a band on a membrane.
The target in assay [2] is T2, WOX2 fused to nYFP (BiFC) (Arabidopsis thaliana) (UniProt Q6X7K1).
T2 sequence: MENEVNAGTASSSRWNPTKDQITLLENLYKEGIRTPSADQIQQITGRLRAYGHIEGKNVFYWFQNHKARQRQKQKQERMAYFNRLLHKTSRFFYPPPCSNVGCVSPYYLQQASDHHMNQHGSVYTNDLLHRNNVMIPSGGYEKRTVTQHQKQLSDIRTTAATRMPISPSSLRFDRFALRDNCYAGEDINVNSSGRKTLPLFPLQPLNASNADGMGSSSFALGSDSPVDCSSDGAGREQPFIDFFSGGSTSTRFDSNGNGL
Briefly: split reporter; BiFC (nYFP/cYFP) in transiently transfected Arabidopsis leaf mesophyll protoplasts, overnight incubation in darkness.

Take “ASK1 (BiFC fusion) (from UniProt Q39255 1-160)”: in the assay with EID1 (BiFC fusion), the binding result is reported as “binds”.

B1: WOX2-YFP-GR (protein, UniProt Q6X7K1 1-260)
chain: MENEVNAGTASSSRWNPTKDQITLLENLYKEGIRTPSADQIQQITGRLRAYGHIEGKNVFYWFQNHKARQRQKQKQERMAYFNRLLHKTSRFFYPPPCSNVGCVSPYYLQQASDHHMNQHGSVYTNDLLHRNNVMIPSGGYEKRTVTQHQKQLSDIRTTAATRMPISPSSLRFDRFALRDNCYAGEDINVNSSGRKTLPLFPLQPLNASNADGMGSSSFALGSDSPVDCSSDGAGREQPFIDFFSGGSTSTRFDSNGNGL
B1: the binding entry in assay [1] is “binds”.

B2: EID1 (BiFC fusion) (protein, UniProt Q8LEA8 1-336)
chain: MAESVFSCIPEDVVFNIFFKLQDDPRNWARLACVCTKFSSIVRNVCCKTQCYSAIPTVISDLLPLPPSAAASASSSTAADSSLTPPGGWASLYKLAVCCPGLFHAGILLENSDFGLERELGPDQNLDPKPTTTDLALNDEEVSKPVGSGLETTSFWSLYDDLYTDTIPAPPPEDSIDDQEEEIETSEIRPGRDLPVRKRRKICRSLGSHLASGGWNLSREQGNKLLASRFRGDCLYICNWPGCIHVEEKRNYMLFRGVFKDFKRSRVWRTINDGNRSKTSGLKCAFCLCDETWDLHSSFCLRRVFGFHDDGEPVVRAYVCENGHVSGAWTALPLYT
For B2, in assay [2], the binding entry is “no binding”.
